Values from PubChem BioAssay AID1053208 (Peter MacCallum Cancer Centre, 2014)

- Test: 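Genes whose silencing cuts survival of bone tumour cells only with doxorubicin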 (primary screen)
- Cell system: mouse osteosarcoma cells, early-passage culture from an engineered mouse model of fibroblastic bone tumour
- Reagents: siRNA pool against mouse genes, 40 nM
- Time to read-out: about 120 h (48 h before drug, then 72 h with drug)
- Conditions: doxorubicin 100 nM for 72 h, roughly 30-40% inhibitory dose
- Read-out: 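Luminescent ATP signal taken as viability with or without 100 nM doxorubicin for 72 h; mean of two wells set against non-targeting siRNA and turned into robust z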
- Direction: viability z-score with doxorubicin: higher = more viable cells under doxorubicin; viability z-score without drug: higher = more viable cells with knock-down alone
- Hit rule: 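a pool counts as active when its viability z-score with doxorubicin is -2 or below and its z-score without drug lies between -2 and 2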
This is a random part of about 17,000 reagents tested. 788 of all reagents (4.7%) count as active. 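Calls rest on z-score classes alone; an extra cut-off of viability at most 70% of control was not applied to them.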 Entries without a mark were called inactive. Reagents against one gene are numbered here. Not all columns of the deposit are shown. No sequences are given here.

gene	reagent no.	combined z-score class	viability z-score with doxorubicin	viability z-score without drug
Pbx4 (pre B cell leukemia homeobox 4)	1	no change with or without drug	-1.12	-1.52
Taf15 (TATA-box binding protein associated factor 15)	1	no change with or without drug	0.11	0.51
Brk1 (BRICK1, SCAR/WAVE actin-nucleating complex subunit)	1	no change with or without drug	-1.35	-0.51
Ube2o (ubiquitin-conjugating enzyme E2O)	1	no change with or without drug	-1.35	-0.84
Scarf2 (scavenger receptor class F, member 2)	1	no change with or without drug	1.35	1.18
Has1 (hyaluronan synthase 1)	1	no change with or without drug	0.22	0.34
H2-DMb2 (histocompatibility 2, class II, locus Mb2)	1	no change with or without drug	-0.9	-1.35
Lats2 (large tumor suppressor 2)	1	no change with or without drug	-1.12	0.51
Trim2 (tripartite motif-containing 2)	1	high cell count without drug only	1.12	2.19
Snrpn (small nuclear ribonucleoprotein N)	1	no change with or without drug	0	-1.18
Plk4 (polo like kinase 4)	1	no change with or without drug	1.12	0.17
Pdlim2 (PDZ and LIM domain 2)	1	no change with or without drug	-0.9	-1.01
Slc16a7	1	no change with or without drug	-1.57	-1.85
Cybc1 (cytochrome b 245 chaperone 1)	1	no change with or without drug	-0.22	-0.17
Get3 (guided entry of tail-anchored proteins factor 3, ATPase)	1	no change with or without drug	0.67	-0.17
Hnmt (histamine N-methyltransferase)	1	no change with or without drug	0.34	-0.84
Col4a4 (collagen, type IV, alpha 4)	1	no change with or without drug	-0.22	1.85
Col4a4 (collagen, type IV, alpha 4)	2	no change with or without drug	0.22	0.51
Tusc2 (tumor suppressor 2, mitochondrial calcium regulator)	1	no change with or without drug	-0.45	1.18
Efhb (EF hand domain family, member B)	1	no change with or without drug	-0.11	0.51
Phc1 (polyhomeotic 1)	1	no change with or without drug	0.22	-0.84
B230220B15Rik (RIKEN cDNA B230220B15 gene)	1	no change with or without drug	-0.67	0.84
Nrip2 (nuclear receptor interacting protein 2)	1	no change with or without drug	1.01	0.51
Oaz2 (ornithine decarboxylase antizyme 2)	1	no change with or without drug	-0.67	-0.17
Ldlrad3 (low density lipoprotein receptor class A domain containing 3)	1	no change with or without drug	0	-0.17
Drd4 (dopamine receptor D4)	1	no change with or without drug	0	-1.35
Zfp729a (zinc finger protein 729a)	1	no change with or without drug	0.34	1.18
Hsph1 (heat shock 105kDa/110kDa protein 1)	1	no change with or without drug	-0.22	0.17
Fxr1 (FMR1 autosomal homolog 1)	1	no change with or without drug	0.45	0
D830016O14Rik (RIKEN cDNA D830016O14 gene)	1	no change with or without drug	0.45	1.69
Kcna10	1	no change with or without drug	-0.9	-0.84
Edar (ectodysplasin-A receptor)	1	no change with or without drug	0.45	0.17
Zfp420 (zinc finger protein 420)	1	no change with or without drug	-0.67	1.52
Panx1 (pannexin 1)	1	no change with or without drug	-0.11	-1.35
Krt71 (keratin 71)	1	low cell count with doxorubicin only (active)	-2.59	-1.69
Ankrd7 (ankyrin repeat domain 7)	1	no change with or without drug	-1.12	-0.34
Sh3tc1 (SH3 domain and tetratricopeptide repeats 1)	1	no change with or without drug	-1.24	-0.17
Or9a7 (olfactory receptor family 9 subfamily A member 7)	1	no change with or without drug	-0.22	-0.84
Ica1 (islet cell autoantigen 1)	1	low cell count with doxorubicin only (active)	-2.25	-1.85
Adam18 (a disintegrin and metallopeptidase domain 18)	1	no change with or without drug	0.45	0.84
Mrpl47 (mitochondrial ribosomal protein L47)	1	no change with or without drug	0.9	-0.84
Itgb2 (integrin beta 2)	1	no change with or without drug	0.79	0.51
Commd1 (COMM domain containing 1)	1	no change with or without drug	-1.12	-0.51
Polr3gl (polymerase (RNA) III (DNA directed) polypeptide G like)	1	no change with or without drug	-0.67	0.84
Tmem170 (transmembrane protein 170)	1	high cell count with doxorubicin only	2.02	1.52
Rwdd1 (RWD domain containing 1)	1	high cell count without drug only	0.45	2.53
Cyp27b1 (cytochrome P450, family 27, subfamily b, polypeptide 1)	1	no change with or without drug	1.8	1.18
Vmn1r185 (vomeronasal 1 receptor 185)	1	no change with or without drug	0	0.17
Fmod (fibromodulin)	1	no change with or without drug	1.01	1.85
Strc (stereocilin)	1	no change with or without drug	-0.67	-0.51
